# Measured values: paper PMC12741935 (Alzheimer's & Dementia, 2025)
# Further values from the same series stand in other lists.
# Test system: brain proteome
# Assay: Brain proteomics (DIA LC-MS/MS) after chronic NVS-PAK1-1 100 mg/kg BID PO vs vehicle in 5xFAD mice
# Format: in vivo
# Protocol: A total of 91 brain samples were prepared from mice in this study and analyzed by mass spectrometry proteomics. One third of the mixed‐chopped left hemisphere tissue was homogenized in 8 M urea lysis buffer (8 M urea, 10 mM Tris, 100 mM NaH2PO4, pH 8.5) with HALT protease and phosphatase inhibitor cocktail (Thermo Fisher) and sonicated for three cycles consisting of 5 seconds of active sonication at 30% amplitude, followed by 15 seconds on ice. Samples were then centrifuged for 5 minutes at 15,000 g and the supernatant was transferred to a new tube. Protein concentration was determined by bicinchoninic acid (BCA) assay (Pierce). For protein digestion, 200 µg of each sample was aliquoted and volumes normalized with additional lysis buffer. Samples were reduced with 5 mM DTT at room temperature for 30 minutes, followed by 10 mM iodoacetamide (IAA) alkylation in the dark for another 30 minutes. Lysyl endopeptidase (Wako) at 1:25 (w/w) was added, and digestion allowed to proceed overnight. Samples were then 7‐fold diluted with 50 mM ammonium bicarbonate. Trypsin (Promega) was then added at 1:25 (w/w) and digestion proceeded overnight. The peptide solutions were acidified to a final concentration of 1% (vol/vol) FA and 0.1% (vol/vol) TFA and desalted with a 10 mg HLB column (Oasis). Each HLB column was first rinsed with 1 mL of methanol, washed with 1 mL 50% (vol/vol) acetonitrile (ACN), and equilibrated with 2 × 1 mL 0.1% (vol/vol) TFA. The samples were then loaded onto the column and washed with 2 × 1 mL 0.1% (vol/vol) TFA. Elution was performed with 0.5 mL 50% (vol/vol) ACN. Samples were split into 50 µL and 400 µL aliquots. Residuals from all samples were combined to create a global internal standard pool.
# Samples were resuspended in an equal volume of loading buffer (0.1% FA, 0.03% TFA, 1% ACN) and analyzed by LC‐MS/MS. Peptide eluents (1 µg) were separated on a Water's CSH (15 cm × 150 µM internal diameter [ID] with 1.7 µm CSH resin) by a Dionex Ultimate 3000 RSLCnano (Thermo Fisher). Buffer A was water with 0.1% (vol/vol) formic acid, and buffer B was 80% (vol/vol) acetonitrile in water with 0.1% (vol/vol) FA. Elution was performed over a 30 minute gradient. The gradient was from 1% to 99% solvent B. Peptides were monitored on an Orbitrap Fusion Lumos mass spectrometer (Thermo Fisher). Each cycle consisted of one full scan (MS1) performed with an m/z range of 380 to 985 at a 60,000 resolution at standard settings and 30 data independent scans (DIA) in 1.5 seconds. The higher energy collision‐induced dissociation (HCD) tandem scans were collected at 30% collision energy with an isolation of 10 m/z, a resolution of 15,000, an AGC setting of 200% normalized AGC target, and a maximum injection time set to 40 ms.
# Raw data files were converted to mzML format for downstream processing using ThermoRawFilerParser v.1.4.4.[30] The data were processed using Data‐Independent Acquisition by Neural Network (DIA‐NN) v.1.9.1.[31] A spectral library was generated using all canonical mouse proteins from UniProt and SwissProt (accessed September 24, 2024) and contaminants from the Common Repository of Adventitious Proteins (cRAP) database [https://www.thegpm.org/crap/]; these contaminant proteins were excluded from normalization and downstream analysis. DIA‐NN was run using parameters specified as follows: precursor charge was set from 1 to 4 and precursor m/z was set from 200 to 5000. Enzyme digestion was set to strict trypsin with 1 allowed missed cleavage, peptide length was set from 7 to 50, and peptide m/z was set from 150 to 3000. The maximum number of variable modifications was set to 3 and methionine oxidation was allowed as a variable modification. Cysteine carbamidomethylation was allowed as a fixed modification. MS1 and MS2 mass accuracy (in ppm) were set using autodetect and the scan window was set using autodetect. The false discovery rate (FDR) threshold was set to 1%. […]
smiles,measurement,setting,value
"CC(C)NC(=O)N1CC[C@H](NC2=Nc3cc(F)ccc3N(CC(F)F)c3ccc(Cl)cc32)C1 [NVS‐PAK1‐1, (S)‐3‐([2‐chloro‐5‐(2,2‐difluoroethyl)‐8‐fluoro‐5H‐dibenzo[b,e][1,4]diazepin‐11‐yl]amino)‐N‐isopropylpyrrolidine‐1‐carboxamide]",logFC_NVS.PAK1.1_vs_vehicle,"Aak1, Young M 5xFAD brain",0.04937
same,logFC_NVS.PAK1.1_vs_vehicle,"Agpat1, Aged M 5xFAD brain",0.1055
same,logFC_NVS.PAK1.1_vs_vehicle,"Arhgdib, Young M 5xFAD brain",-0.1952
same,logFC_NVS.PAK1.1_vs_vehicle,"Clu, Young F 5xFAD brain",-0.2122
same,logFC_NVS.PAK1.1_vs_vehicle,"Commd10, Young F 5xFAD brain",-0.2183
same,logFC_NVS.PAK1.1_vs_vehicle,"Coq3, Young F 5xFAD brain",0.2716
same,logFC_NVS.PAK1.1_vs_vehicle,"Ddb1, Young F 5xFAD brain",-0.05262
same,logFC_NVS.PAK1.1_vs_vehicle,"Eef1g, Young F 5xFAD brain",-0.04894
same,logFC_NVS.PAK1.1_vs_vehicle,"Faim2, Aged M 5xFAD brain",-0.292
same,logFC_NVS.PAK1.1_vs_vehicle,"Fxyd1, Young F 5xFAD brain",-0.1469
same,logFC_NVS.PAK1.1_vs_vehicle,"Idh3b, Young F 5xFAD brain",0.04787
same,logFC_NVS.PAK1.1_vs_vehicle,"Lnpep, Young F 5xFAD brain",-0.2014
same,logFC_NVS.PAK1.1_vs_vehicle,"Ndufs1.1, Young F 5xFAD brain",0.05722
same,logFC_NVS.PAK1.1_vs_vehicle,"Ndufs7, Young F 5xFAD brain",0.06237
same,logFC_NVS.PAK1.1_vs_vehicle,"Nop56, Young F 5xFAD brain",-0.0818
same,logFC_NVS.PAK1.1_vs_vehicle,"Pkm, Young M 5xFAD brain",-0.07982
same,logFC_NVS.PAK1.1_vs_vehicle,"Ppia, Aged F 5xFAD brain",-0.04905
same,logFC_NVS.PAK1.1_vs_vehicle,"Ppm1h, Young M 5xFAD brain",0.08363
same,logFC_NVS.PAK1.1_vs_vehicle,"Rbbp4, Young F 5xFAD brain",-0.1313
same,logFC_NVS.PAK1.1_vs_vehicle,"Septin8, Young M 5xFAD brain",-0.04435
same,logFC_NVS.PAK1.1_vs_vehicle,"Trpv2, Aged F 5xFAD brain",0.1543
same,logFC_NVS.PAK1.1_vs_vehicle,"Zc3hc1, Aged M 5xFAD brain",-0.2342
